Experimental data as given in publication PMC10541425, “Targeting Toll-like receptor-driven systemic inflammation by engineering an innate structural fold into drugs” (Nature Communications, 2023).
No constants are given. Whether binding was seen depends on the method and setting. Some binding calls cover weakened binding; strength is not graded here. For part of these data: Sequences can lack the tags named with a protein.

Legend:
[1] = molecular target: T1, Deglycosylated hCD14 (human) (UniProt P08571); test: HDX-MS; deglycosylated CD14 ([…] in 20 mM Tris, 100 mM NaCl, 10% glycerol, pH 7.5) with or without peptide, molar ratio 1:10 (CD14:ligand); labelling 0, 30, 300, 3000, 9000 s at 20 °C in 25 mM Tris D2O buffer; online pepsin digestion; both purified
T1 sequence (chain, deglycosylated with PNGase F): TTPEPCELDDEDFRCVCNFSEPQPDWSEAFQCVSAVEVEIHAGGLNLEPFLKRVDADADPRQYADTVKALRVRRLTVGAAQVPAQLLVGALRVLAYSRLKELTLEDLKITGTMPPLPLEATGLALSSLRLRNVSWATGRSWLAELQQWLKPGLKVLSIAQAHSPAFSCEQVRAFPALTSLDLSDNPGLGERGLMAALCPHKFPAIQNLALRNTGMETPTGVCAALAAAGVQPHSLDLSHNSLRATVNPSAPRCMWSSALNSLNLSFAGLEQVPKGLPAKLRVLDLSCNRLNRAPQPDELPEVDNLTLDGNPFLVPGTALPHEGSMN

[2] = molecular target: T2, Human His-tag CD14 (hCD14), glycosylated (human) (UniProt P08571); test: MST; RED-NHS-labelled glycosylated hCD14 (5 µL of 21 nM) mixed 1:1 with 0.03–1000 µM peptide, 10 mM Tris pH 7.4, with 150 mM NaCl; Monolith NT.115, standard capillaries; both purified
T2 sequence (chain, glycosylated; labelled with the Monolith NT Protein labeling kit RED – NHS): T1 sequence (chain, deglycosylated with PNGase F)

[3] = molecular target: T2, Human His-tag CD14 (hCD14), glycosylated (human); test: MST; RED-NHS-labelled glycosylated hCD14 (5 µL of 21 nM) mixed 1:1 with 0.03–1000 µM peptide, 10 mM Tris pH 7.4, without NaCl; Monolith NT.115, standard capillaries; both purified

- binding [1]: binds
- binding [2]: binds
- binding [3]: binds
B1: HVF18 (peptide)
peptide: HVFRLKKWIQKVIDQFGE
